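Viability assay of Plasmodium falciparum sporozoites; the read-out is not stated. The concentration is filed as 10 mM, unlikely as a test dose, so the dose is not known. Higher reads as lower viability (inferred: compounds with an IC50 in retests scored well above the rest). Strong results were mostly tested again. Size under these conditions: about 34,000 compounds, about 280 of them at 50% or above in at least one test.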

Results are given as percent effect.
How 0% and 100% were set is not recorded. Most values in the screen are low, and negative values occur.
This is an unselected part of the compounds tested.
Two or more numbers in one place are separate tests of the same structure; such repeats can differ widely.

| compound | effect |
|---|---|
| `Cc1ccc2c(c1)C(=O)NCC1(CCN(Cc3ccccc3)CC1)O2` | -431.9 and 1.823 and -439.6 |
| `CC(C)c1ncc(CN2CCC(CO)C2)cn1.O=C(O)CC(O)(CC(=O)O)C(=O)O` (stereo not shown) | 2.967 |
| `O=C1NCCCCC1NS(=O)(=O)N1CCCCC1` (stereo not shown) | -2.113 |
| `O=C(O)C(F)(F)F.O=C(O)C(F)(F)F.[H][C@@]12COC[C@]1(COc1cccnc1)CN(Cc1ccc(OC)cc1)C2` | -13.75 |
| `Cc1ccc(OCCN(C)C(C)c2cccc(S(N)(=O)=O)c2)cc1` (stereo not shown) | -0.135 |
| `CN1CCCN(C(=O)NCc2cccnc2-n2cccn2)CC1` | -0.7887 |
| `COCCC1COC2(CCN(C(=O)c3ccco3)CC2)C1` (stereo not shown) | 4.268 |
| `Cc1nc(C2CCCN(C(=O)c3ccc(Cl)cn3)C2)no1` (stereo not shown) | 0.9926 |
| `Cc1nc(NCCC23CCCN2CCC3)cc(C2CCCNC2)n1` (stereo not shown) | 1.053 |
| `Cc1ccc(CN2CCCC3(CCCCN3S(C)(=O)=O)C2)s1.O=C(O)C(F)(F)F` (stereo not shown) | 14.4 |
| `O=C(N[C@@H]1CCC[C@@H](N2CCOCC2)[C@@H]1O)c1ncccn1` | 10.96 |
| `CCn1ccnc1CN1CCCN(C(=O)Cc2ccc(F)cc2)CC1` | 2.971 |
| `O=C(Cc1c[nH]c2ccccc12)N1CCC(Nc2cccnn2)CC1` | 2.489 |
| `Cc1cnn(-c2ccc(S(N)(=O)=O)cc2F)c1` | -3.885 |
| `[H][C@@]12OCCC[C@]1([H])N(S(C)(=O)=O)C[C@@H]2NC(=O)c1ccno1` | 6.24 |
| `COc1cc(S(=O)(=O)N2CCCc3ccccc32)cc(C(=O)O)c1OC` | -12.25 |
| `CCOC(=O)CNC(=O)NCc1cccn1Cc1ccccc1C` | -1.544 |
| `CN(Cc1ccc(C#N)cc1)Cn1nccc1-c1cccnc1` | 6.34 |
| `CC(C)S(=O)(=O)N1CCC(c2cc3n(n2)[C@@H](C(F)(F)F)C[C@@H](C)N3)CC1` | 7.472 |
| `CN1CCN(Cc2cn3c(n2)CN(Cc2cccnc2)CC3)CC1` | -4.114 |
| `N#CCCNC(=O)CN1CC(n2cccn2)C1` | 12.71 |
| `O=C(O)C(F)(F)F.[H][C@@]12CCN(C(=O)c3cnn(C)c3)[C@@]1([H])CCN2Cc1cccc(F)c1` | -13.26 |
| `CC(C)n1ccnc1C1CCN(C(=O)c2ccccc2N(C)C)CC1` | -7.807 |
| `COCCc1noc(CN2CCCC2c2c(C)nn(C)c2Cl)n1` (stereo not shown) | 15.53 |
| `CCc1c(C)nc2cc(-c3nccn3C)nn2c1N1CCCC(CO)C1` (stereo not shown) | 20.66 |
| `CC1CCN(CC(O)CNc2ccccn2)CC1` (stereo not shown) | 4.329 |
| `CC(Cn1ccnc1)NC(=O)C1(c2ccc3c(c2)OCCO3)CCCC1` (stereo not shown) | 0.7401 |
| `Cc1nn(CC(=O)N2CCC(Nc3cccnn3)CC2)c(C)c1Cl` | 2.308 |
| `O=C(CS(=O)(=O)Cc1cc(Cl)c2c(c1)OCO2)N1CCCC1` | -2.175 |
| `CN(Cc1ccccn1)CC1CCCN1c1cccnn1` (stereo not shown) | 1.327 |
| `COc1nn(C)cc1C(=O)N1CCC(c2ccccc2)C1` (stereo not shown) | -0.8057 |
| `CC(=O)N1CCC(c2ccnc(Nc3cc(C(F)(F)F)ccn3)n2)C1` (stereo not shown) | 11.55 |
| `CCCN(CCS(C)(=O)=O)C1CCc2ccccc2C1` (stereo not shown) | 6.9 |
| `O=C(NCc1cc[nH]n1)NC1CCCN(c2ncccn2)C1` (stereo not shown) | -13.19 |
| `COC(=O)CCC(=O)N1CCC2(CN(Cc3ccc(Cl)cc3)C2)C1` | -4.123 |
| `Oc1ccc(N2CCC(Cc3ccccc3)CC2)nn1` | -6.488 |
| `CCn1cc(NC(=O)NCC(C)O)cn1` (stereo not shown) | 1.727 |
| `CCOc1ncnc2c1CCN(C(=O)c1ccncc1F)CC2.O=C(O)C(F)(F)F` | 16.16 |
| `CN(C)c1cccc(CNC(=O)Nc2cc(C#N)ccc2Cl)n1` | 7.658 |
| `O=C(Cn1cnc2ccccc2c1=O)Nc1cc(C2CC2)n[nH]1` | 21.47 |
| `Cc1nc(N)cc(C2(C)CCCNC2)n1` (stereo not shown) | 6.16 |
| `COCc1nc(C(=O)NS(=O)(=O)c2cc(F)ccc2F)cs1` | 7.89 |
| `CN(C)CCn1nc(C2CCN(Cc3ccccc3)C2)c2cccnc21` (stereo not shown) | 15.03 |
| `CN(C)C(=O)N1CCN(Cc2noc(Cc3ccccc3)n2)CC1` | -0.08224 |
| `Cc1cccc(OCCNC(=O)CN2CCN(C)CC2C)c1` (stereo not shown) | 2.234 |
| `O=C(Cc1ccc2c(c1)CCO2)N1CCN(c2nccs2)CC1` | 12.07 |
| `Cc1ccc(CC(=O)Nc2cc(C(C)C)n[nH]2)cn1` | 2.212 |
| `COc1cc(C2(C(=O)NCCn3ccnc3)CCCC2)ccc1C` | -5.486 |
| `CCN(CCC(F)(F)F)C(=O)Nc1cccc(N2CCOCC2)c1` | -7.412 |
| `CCc1noc(CN2CCC(c3ccnn3CCO)CC2)n1` | 8.419 |
| `Cc1ccc(N2CCC3(CC2)CC(OCC(C)C)C3)nn1.O=C(O)C(F)(F)F` | 0.5963 |
| `Cc1cc(C)n(-c2ccc(N3CCCSCC3)nc2)n1` | -37.47 and -13.03 and -35.97 |
| `CC(NC(=O)N(C)Cc1ccsc1)c1ccc2c(c1)NC(=O)CO2` (stereo not shown) | -2.473 |
| `CC(C)c1ncc2c(n1)CN(Cc1nc(-c3cccs3)no1)CC2` | 13.28 and 7.226 and -0.3719 |
| `Cc1cnn(CC2CN(Cc3nccn3C)CCO2)c1` (stereo not shown) | -3.091 |
| `O=C(c1ccc(-n2cccn2)nc1)N1CCC(c2ccn[nH]2)C1` (stereo not shown) | -0.6869 |
| `Cc1cc(C(=O)N2CCCC(n3cncn3)C2)no1` (stereo not shown) | 2.312 |
| `Cc1nn(C)cc1S(=O)(=O)N[C@@H]1CCC[C@@H](n2ccnc2)[C@@H]1O` | 5.18 |
| `CC(C)(C)c1ccc(C2(C(=O)NCCS(N)(=O)=O)CC2)cc1` | -3.272 |
| `CCN1CC(=O)NCC12CCN(C(=O)c1ccno1)C2.O=C(O)C(F)(F)F` (stereo not shown) | 10.78 |
| `Fc1ccc(-c2nc(CN3CCCC3Cn3cncn3)co2)cc1` (stereo not shown) | 15.62 |
| `[H][C@]12C[C@H](NC(=O)c3cnn(C)c3)[C@@]1([H])CN(S(=O)(=O)c1ccc(C)cc1)C2` | 2.324 |
| `COc1ccccc1CC1CCN(C(=O)CCc2ccccn2)CC1` | -10.74 |
| `Cc1cccc(S(=O)(=O)NCC(C)N2CCN(C)CC2)c1Cl` (stereo not shown) | 1.309 |
| `Cc1cn[nH]c1C1COCCN1C(=O)c1ccc2[nH]nnc2c1` (stereo not shown) | 6.975 |

The first 7 entries again:

compound,effect
Cc1ccc2c(c1)C(=O)NCC1(CCN(Cc3ccccc3)CC1)O2,-431.9 and 1.823 and -439.6
CC(C)c1ncc(CN2CCC(CO)C2)cn1.O=C(O)CC(O)(CC(=O)O)C(=O)O (stereo not shown),2.967
O=C1NCCCCC1NS(=O)(=O)N1CCCCC1 (stereo not shown),-2.113
O=C(O)C(F)(F)F.O=C(O)C(F)(F)F.[H][C@@]12COC[C@]1(COc1cccnc1)CN(Cc1ccc(OC)cc1)C2,-13.75
Cc1ccc(OCCN(C)C(C)c2cccc(S(N)(=O)=O)c2)cc1 (stereo not shown),-0.135
CN1CCCN(C(=O)NCc2cccnc2-n2cccn2)CC1,-0.7887
COCCC1COC2(CCN(C(=O)c3ccco3)CC2)C1 (stereo not shown),4.268

The values are deposited in ChEMBL (CHEMBL3988442, “University of Dundee, Small-Polar-MMV Screening Library” (2021)).